Patent US8153431B2, “Compositions and methods for making mutations in cell lines and animals” (ABT Holding Company, priority 2001, dated 2012)

Test system: single copy HPRT gene
Assay: Mutation rate by knockout of single copy HPRT gene (6-thioguanine selection) in Jurkat cells
Type: cell-based, human
Excerpt: The ability to identify all genetic mutations that can create a phenotype requires that large numbers of mutations be created in as few cells as possible, and the high efficiency of ENU chemical mutagenesis is suited to this task. We set out to determine the ENU treatment needed to create 50-100 cell libraries in which all genes are mutated at least once (defined as a 1× knockout library) in Jurkat cells. To characterize the mutagenesis we measured both cell survival and the mutation rate in characterizing the optimal ENU treatment (Table I). Survival was determined by limiting dilution, and the mutation rate was estimated in the population of surviving clones based on the frequency of knocking out the single copy HPRT gene (assayed by the survival of such HPRT^− cells upon culture in the presence of 6-thioguanine). As shown in the table below, at an ENU dose of 0.2 mg/ml the mutation rate is 0.02 HPRT^− genes/cell and the 1× library size is therefore ˜50 cells. Creation of libraries of these densely mutagenized cells provides a genetically sensitized background in which small increments of further mutagenesis can create phenotypes by knocking out the sole remaining wild type alleles of ENU-mutated genes.
• Jurkat cells were treated with 10 uM O-6-BG (Sigma) at 5×10^5 cells/ml for 16 hours at 37° C. in a humidified incubator with 5% CO2. The pretreated cells were then incubated with desired concentration of ENU (Sigma) in the presence of O-6-BG for 2 hours at 37° C. with constant shaking. At the end of incubation cells were washed with 10-volume 1×PBS three times and resuspended in complete media with 10 uM O-6-BG. 24 hours later O-6-BG was washed off, cells were resuspended in complete media and seeded onto 96-well plate at 20 cells per well or 400-2000 cells per well. Cells were then cultured for 10 days. Viability is determined by the lower density seeding based on number of wells containing growing colonies. To determine mutation frequency, cells seeded at the higher density were used to select for Hprt-loss of function mutants in the presence of 40 uM 6-TG (Sigma). Number of wells containing growing colonies in the presence of 6-TG was scored 7-10 days later. Mutation frequency is calculated as # of 6-TG resistant colony divided by # of viable cells seeded.

Row | SMILES | 1× library size (0.7 mg/ml EMS) | 1× library size (ENU 0.1 mg/ml, number of ENU treated clones needed to contain mutations) [clones] | 1× library size (ENU 0.125 mg/ml, number of ENU treated clones needed to contain mutations) [clones] | 1× library size (ENU 0.15 mg/ml, number of ENU treated clones needed to contain mutations) [clones] | 1× library size (ENU 0.175 mg/ml, number of ENU treated clones needed to contain mutations) [clones] | 1× library size (ENU 0.2 mg/ml, number of ENU treated clones needed to contain mutations) [clones] | 1× library size (ENU 0.25 mg/ml, number of ENU treated clones needed to contain mutations) [clones] | 1× library size (ENU dose of 0.2 mg/ml) [cells]
1 | CCOS(C)(=O)=O [EMS, ethylmethanesulphonate] | about 100 cells |  |  |  |  |  |  | 
2 | CCN(N=O)C(N)=O [ENU, N-ethyl-N-nitrosourea] |  | 417 | 204 | 164 | 122 | 50 | 31 | ~50
